Consider 4 molecules from paper PMC8902620, “Oligomerization of DNA replication regulatory protein RADX is essential to maintain replication fork stability” (The Journal of Biological Chemistry, 2022).

Amino acid sequences for entries named in this document (tags omitted).
UniProt Q06609: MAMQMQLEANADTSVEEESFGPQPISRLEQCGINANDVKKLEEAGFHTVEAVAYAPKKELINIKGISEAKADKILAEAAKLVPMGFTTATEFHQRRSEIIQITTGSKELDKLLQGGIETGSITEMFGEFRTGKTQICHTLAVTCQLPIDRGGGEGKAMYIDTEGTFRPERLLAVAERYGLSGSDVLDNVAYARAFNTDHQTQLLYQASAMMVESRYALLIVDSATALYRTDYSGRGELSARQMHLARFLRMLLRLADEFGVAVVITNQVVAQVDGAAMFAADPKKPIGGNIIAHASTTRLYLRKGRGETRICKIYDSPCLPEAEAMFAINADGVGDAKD

One experiment addresses RAD51 (UniProt Q06609). Description: co-IP; purified RAD51 (100 nM) held on RAD51 antibody and Protein G magnetic beads, purified RADX WT or mutant added for 1 h; 50 mM Tris pH 8.0, 200 mM NaCl, 2 mM CaCl2, 2 mM ATP, 1 mM DTT; immunoblot; both purified. (In western blotting, separated proteins are transferred to a membrane and probed.)
The target of experiment [1] is full-length RADX, wild type, tagged with mCherry-FLAG or with GFP-HA (human) (UniProt Q6NSI4). Description: co-IP; purified mCherry-FLAG proteins mixed with purified GFP-HA-RADX and captured on GFP-trap magnetic agarose beads, 1 h at 4 °C; 50 mM Tris pH 7.5, 250 mM NaCl, 10% glycerol, 0.05% NP-40; immunoblot; both purified.

Numbering of substitutions follows the chain as printed. Names and notes keep the numbering of the source. These are yes or no findings as the source states them, for the method shown. Some binding calls cover weakened binding; strength is not graded here.

Take “full-length RADX, wild type, tagged with mCherry-FLAG or with GFP-HA (from UniProt Q6NSI4 1-855)”: the binding result with RAD51 is given as “binds”.
Turning to “mCherry-FLAG-RADX domain 4 (675–727) (from UniProt Q6NSI4 675-727) (domain or fragment)”, in experiment [1], the binding entry is reported as “no binding”.

B1: mCherry-FLAG-RADX E842K (natural protein, human, UniProt Q6NSI4 1-855, looked up)
chain: MSGESGQPEAGPSHAGLDWPNPERNRAGVPGGVIRRAGSQGPRSWIQKVLEQIMDSPRQCVTPSEVVPVTVLAVQRYLLEDEPRDTVPKPPLYCYDVTISDGVYQEKCYLDPSLNSLVYQNILKVGIQMRISRVSCLYNEKRIGQGILCIDNVHCGETSDSISLETPFRNRAHQEKPERPLRGGKSHYLALWNNEDPYGDIWLTDKQPEEHNFSDTKIISLSHLEMTWTNRRNFPALLVRILHKSKLRYYGKPDKKMIEPYQTFLEVADSSGTVSVIMWNALCPEWYKSLRVGLVLLLQDYSVKKSYPFRIQPVPVDPQIKLISTMEICLNLRDPPTNIIIIPEKQVKPEWRLPKLNHRFTTRSELDDMPENCICDVIGLLVFVGRVQRSKKKENREDFWSYRWIHIADGTSEQPFIVELFSTSQPEIFENIYPMAYFVCTQLKVVRNDNQVPKLLYLTTTNESGVFITGHRGQPYTYDAKVKNFIQWIRTKSDSGEQKNMVIGGYYPYPPVPETFSKYSSSIKVESLLTAISEVRKEIEDLQYREQKRIAIQGIITAIKYIPHSSATESASASETLRNANRPSTSQAARVEIQERNGKRHQDDEPVNSQYFQTTSTNLSLSNKIRILQGPHANPVAVPQPGASVQTKGIKPGMPSIFNRRANINANLQGKARKTISDRWESQLWREKKFGLIDHLHYSRVYPESIPRKFMFEHRKFLSDQYNSQPAKYVPPEGRPPKLDDFKSARSLGHFEVTILGLNHEIAIDVAFLPMYCPEDIRTSQIDTLLTSMNYSCAYPQDTTGNDRLPGPRAVAGDIIKAATELDRVHIVGILDICNLGNNKVKVYLHKIYSPENTS
notes: RADX, human, full length with one point mutation; also called E842K RADX; pTM156; source: HEK293T, purified (anti-FLAG M2 beads, 3x FLAG peptide, Superdex 200)
For B1, in the experiment with RAD51, the binding result was “binds”.

B2: mCherry-FLAG-RADX K847D (natural protein, human, UniProt Q6NSI4 1-855, looked up)
chain: B1 chain with K842E, K847D
notes: RADX, human, full length with one point mutation; also called K847D RADX; pTM157; source: HEK293T, purified (anti-FLAG M2 beads, 3x FLAG peptide, Superdex 200)
For B2, in the experiment with RAD51, the binding result is “binds”.
